Assay results: the supplement of paper PMC7661543
± gives the standard deviation of the averaged measurements. The effect of the compound repeats well; differences between the knockouts mostly do not.

Experiments:
Assay in all cases: relative cell number vs DMSO control (72 h) (% of DMSO); higher = less growth inhibition (more cells)
MDA-MB-231 = system: MDA-MB-231
Protocol: (§1)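 QMAP-Seq: a pool of 5 breast cancer cell lines (ZR-75-1, SKBR3, HCC-38, MDA-MB-231, BT-20), each carrying 12 doxycycline-inducible Cas9 sgRNA perturbations (11 knockouts plus non-targeting sgNT), was treated with compounds for 72 h at four 10-fold doses (10 nM-10 uM or 1 nM-1 uM range). Barcodes were amplified and sequenced, and cell number was interpolated from 293T spike-in standard curves. The result is expressed as % of the median of DMSO wells. Two biological replicates.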

ZR-75-1 = system: ZR-75-1
Protocol: as §1

SKBR3 = system: SKBR3
Protocol: as §1

[1] = sgRNA knockout: sgATF3, 1000 nM
[2] = sgRNA knockout: sgATF3, 10000 nM
[3] = sgRNA knockout: sgATF4, 1000 nM
[4] = sgRNA knockout: sgATF4, 10000 nM
[5] = sgRNA knockout: sgATF6, 1000 nM
[6] = sgRNA knockout: sgATF6, 10000 nM
[7] = sgRNA knockout: sgATG7, 1000 nM
[8] = sgRNA knockout: sgATG7, 10000 nM
[9] = sgRNA knockout: sgERN1, 1000 nM
[10] = sgRNA knockout: sgERN1, 10000 nM
[11] = sgRNA knockout: sgHSF1, 1000 nM
[12] = sgRNA knockout: sgHSF1, 10000 nM
[13] = sgRNA knockout: sgHSF2, 1000 nM
[14] = sgRNA knockout: sgHSF2, 10000 nM
[15] = sgRNA knockout: sgKEAP1, 100 nM
[16] = sgRNA knockout: sgKEAP1, 1000 nM
[17] = sgRNA knockout: sgKEAP1, 10000 nM
[18] = sgRNA knockout: sgNFE2L2, 10 nM
[19] = sgRNA knockout: sgNFE2L2, 100 nM
[20] = sgRNA knockout: sgNFE2L2, 1000 nM
[21] = sgRNA knockout: sgNFE2L2, 10000 nM
[22] = sgRNA knockout: sgSLC35F2, 10 nM
[23] = sgRNA knockout: sgSLC35F2, 100 nM
[24] = sgRNA knockout: sgSLC35F2, 1000 nM
[25] = sgRNA knockout: sgSLC35F2, 10000 nM
[26] = sgRNA knockout: sgXBP1, 1000 nM
[27] = sgRNA knockout: sgXBP1, 10000 nM

`COC(=O)[C@]12CCC(C)(C)C[C@H]1[C@H]1C(=O)C=C3[C@@]4(C)C=C(C#N)C(=O)C(C)(C)[C@@H]4CC[C@@]3(C)[C@]1(C)CC2` [BardoxoloneMethyl] was tested, and the relative cell number (MDA-MB-231; sgRNA knockout: sgATF3, 10 nM) was 103 ± 11, the relative cell number (MDA-MB-231; sgRNA knockout: sgATF3, 100 nM) was 106 ± 23 and the relative cell number (MDA-MB-231; [1]) was 12.2 ± 2.1. The relative cell number (MDA-MB-231; [2]) was 7.87 ± 3.1, the relative cell number (MDA-MB-231; sgRNA knockout: sgATF4, 10 nM) was 102 ± 10 and the relative cell number (MDA-MB-231; sgRNA knockout: sgATF4, 100 nM) was 76.9 ± 6.9. It also gave a relative cell number (MDA-MB-231; [3]) of 14.3 ± 0.2, a relative cell number (MDA-MB-231; [4]) of 7.56 ± 2.8 and a relative cell number (MDA-MB-231; sgRNA knockout: sgATF6, 10 nM) of 121 ± 11. For the same compound, the relative cell number (MDA-MB-231; sgRNA knockout: sgATF6, 100 nM) was 93.2 ± 46, the relative cell number (MDA-MB-231; [5]) was 11.6 ± 2 and the relative cell number (MDA-MB-231; [6]) was 4.71 ± 3.5. The relative cell number (MDA-MB-231; sgRNA knockout: sgATG7, 10 nM) was 95.1 ± 11, the relative cell number (MDA-MB-231; sgRNA knockout: sgATG7, 100 nM) was 90.3 ± 24 and the relative cell number (MDA-MB-231; [7]) was 16 ± 5.9. The relative cell number (MDA-MB-231; [8]) was 5.49 ± 3.2, the relative cell number (MDA-MB-231; sgRNA knockout: sgERN1, 10 nM) was 92.1 ± 3.2 and the relative cell number (MDA-MB-231; sgRNA knockout: sgERN1, 100 nM) was 85.9 ± 4. The relative cell number (MDA-MB-231; [9]) was 12.2 ± 1.5, the relative cell number (MDA-MB-231; [10]) was 6.47 ± 4 and the relative cell number (MDA-MB-231; sgRNA knockout: sgHSF1, 10 nM) was 123 ± 19. For the same compound, the relative cell number (MDA-MB-231; sgRNA knockout: sgHSF1, 100 nM) was 79.1 ± 4.3, the relative cell number (MDA-MB-231; [11]) was 9.77 ± 5.2 and the relative cell number (MDA-MB-231; [12]) was 4.5 ± 2.9. It also gave a relative cell number (MDA-MB-231; sgRNA knockout: sgHSF2, 10 nM) of 120 ± 12, a relative cell number (MDA-MB-231; sgRNA knockout: sgHSF2, 100 nM) of 87.7 ± 17 and a relative cell number (MDA-MB-231; [13]) of 9.93 ± 2.3. The relative cell number (MDA-MB-231; [14]) was 6.17 ± 2.8, the relative cell number (MDA-MB-231; sgRNA knockout: sgKEAP1, 10 nM) was 95.4 ± 28 and the relative cell number (MDA-MB-231; [15]) was 93.5 ± 14. For the same compound, the relative cell number (MDA-MB-231; [16]) was 12.7 ± 3, the relative cell number (MDA-MB-231; [17]) was 6.14 ± 4.5 and the relative cell number (MDA-MB-231; [18]) was 91.8 ± 19. The relative cell number (MDA-MB-231; [19]) was 75.5 ± 18, the relative cell number (MDA-MB-231; [20]) was 15.8 ± 2.5 and the relative cell number (MDA-MB-231; [21]) was 4.18 ± 3.5. The relative cell number (MDA-MB-231; [22]) was 106 ± 16, the relative cell number (MDA-MB-231; [23]) was 108 ± 6.8 and the relative cell number (MDA-MB-231; [24]) was 15.2 ± 3.3. The relative cell number (MDA-MB-231; [25]) was 8.56 ± 5.9, the relative cell number (MDA-MB-231; sgRNA knockout: sgXBP1, 10 nM) was 93 ± 1.6 and the relative cell number (MDA-MB-231; sgRNA knockout: sgXBP1, 100 nM) was 96.4 ± 10. The relative cell number (MDA-MB-231; [26]) was 14.7 ± 1.8, the relative cell number (MDA-MB-231; [27]) was 4.61 ± 3 and the relative cell number (ZR-75-1; sgRNA knockout: sgATF3, 10 nM) was 105 ± 3.8. The relative cell number (ZR-75-1; sgRNA knockout: sgATF3, 100 nM) was 53.5 ± 3, the relative cell number (ZR-75-1; [1]) was 14.9 ± 0.42 and the relative cell number (ZR-75-1; [2]) was 3.07 ± 2.2. It also gave a relative cell number (ZR-75-1; sgRNA knockout: sgATF4, 10 nM) of 70.6 ± 12, a relative cell number (ZR-75-1; sgRNA knockout: sgATF4, 100 nM) of 58.3 ± 11 and a relative cell number (ZR-75-1; [3]) of 21.3 ± 2.9. The relative cell number (ZR-75-1; [4]) was 4.15 ± 2.4, the relative cell number (ZR-75-1; sgRNA knockout: sgATF6, 10 nM) was 101 ± 30 and the relative cell number (ZR-75-1; sgRNA knockout: sgATF6, 100 nM) was 46.1 ± 10. It also gave a relative cell number (ZR-75-1; [5]) of 17.3 ± 4.4, a relative cell number (ZR-75-1; [6]) of 3.98 ± 1.4 and a relative cell number (ZR-75-1; sgRNA knockout: sgATG7, 10 nM) of 81.37 ± 0.12. For the same compound, the relative cell number (ZR-75-1; sgRNA knockout: sgATG7, 100 nM) was 37.1 ± 9.6, the relative cell number (ZR-75-1; [7]) was 21 ± 9.4 and the relative cell number (ZR-75-1; [8]) was 2.82 ± 1.2. The relative cell number (ZR-75-1; sgRNA knockout: sgERN1, 10 nM) was 102 ± 12, the relative cell number (ZR-75-1; sgRNA knockout: sgERN1, 100 nM) was 56.7 ± 10 and the relative cell number (ZR-75-1; [9]) was 12.3 ± 7.1. The relative cell number (ZR-75-1; [10]) was 7.77 ± 6.3, the relative cell number (ZR-75-1; sgRNA knockout: sgHSF2, 10 nM) was 100 ± 25 and the relative cell number (ZR-75-1; sgRNA knockout: sgHSF2, 100 nM) was 52.5 ± 2.3. It also gave a relative cell number (ZR-75-1; [13]) of 15 ± 0.58, a relative cell number (ZR-75-1; [14]) of 3.36 ± 1.8 and a relative cell number (ZR-75-1; [18]) of 78.1 ± 31. For the same compound, the relative cell number (ZR-75-1; [19]) was 40.4 ± 6.8, the relative cell number (ZR-75-1; [20]) was 15.9 ± 4.7 and the relative cell number (ZR-75-1; [21]) was 7.75 ± 5.8. For the same compound, the relative cell number (ZR-75-1; [22]) was 84.4 ± 21, the relative cell number (ZR-75-1; [23]) was 46.9 ± 16 and the relative cell number (ZR-75-1; [24]) was 19 ± 6.7. The relative cell number (ZR-75-1; [25]) was 4.05 ± 0.81, the relative cell number (ZR-75-1; sgRNA knockout: sgXBP1, 10 nM) was 82.5 ± 22 and the relative cell number (ZR-75-1; sgRNA knockout: sgXBP1, 100 nM) was 45.2 ± 1.1. The relative cell number (ZR-75-1; [26]) was 14.4 ± 0.17, the relative cell number (ZR-75-1; [27]) was 6.09 ± 5.3 and the relative cell number (SKBR3; sgRNA knockout: sgATF3, 10 nM) was 81.4 ± 11. It also gave a relative cell number (SKBR3; sgRNA knockout: sgATF3, 100 nM) of 64.7 ± 16, a relative cell number (SKBR3; [1]) of 8.84 ± 3 and a relative cell number (SKBR3; [2]) of 5.51 ± 1.1. The relative cell number (SKBR3; sgRNA knockout: sgATF4, 10 nM) was 89.4 ± 3.3, the relative cell number (SKBR3; sgRNA knockout: sgATF4, 100 nM) was 70.8 ± 2.4 and the relative cell number (SKBR3; [3]) was 10.8 ± 1.2. It also gave a relative cell number (SKBR3; [4]) of 4.49 ± 0.81, a relative cell number (SKBR3; sgRNA knockout: sgATF6, 10 nM) of 75.5 ± 14 and a relative cell number (SKBR3; sgRNA knockout: sgATF6, 100 nM) of 60.3 ± 16. It also gave a relative cell number (SKBR3; [5]) of 10.6 ± 1.6, a relative cell number (SKBR3; [6]) of 5.87 ± 0.02 and a relative cell number (SKBR3; sgRNA knockout: sgATG7, 10 nM) of 98.4 ± 30. For the same compound, the relative cell number (SKBR3; sgRNA knockout: sgATG7, 100 nM) was 63.3 ± 11, the relative cell number (SKBR3; [7]) was 17.8 ± 6 and the relative cell number (SKBR3; [8]) was 5.53 ± 1.2. For the same compound, the relative cell number (SKBR3; sgRNA knockout: sgERN1, 10 nM) was 92.8 ± 2.8, the relative cell number (SKBR3; sgRNA knockout: sgERN1, 100 nM) was 56.8 ± 14 and the relative cell number (SKBR3; [9]) was 12.2 ± 0.97. It also gave a relative cell number (SKBR3; [10]) of 6.771 ± 0.051, a relative cell number (SKBR3; sgRNA knockout: sgHSF1, 10 nM) of 81.29 ± 0.38 and a relative cell number (SKBR3; sgRNA knockout: sgHSF1, 100 nM) of 59 ± 9.5. For the same compound, the relative cell number (SKBR3; [11]) was 13.9 ± 3.9, the relative cell number (SKBR3; [12]) was 7.43 ± 5.2 and the relative cell number (SKBR3; sgRNA knockout: sgHSF2, 10 nM) was 94.8 ± 11. It also gave a relative cell number (SKBR3; sgRNA knockout: sgHSF2, 100 nM) of 55.5 ± 24, a relative cell number (SKBR3; [13]) of 12.9 ± 2.1 and a relative cell number (SKBR3; [14]) of 4.99 ± 0.27. It also gave a relative cell number (SKBR3; sgRNA knockout: sgKEAP1, 10 nM) of 86.8 ± 16, a relative cell number (SKBR3; [15]) of 78.4 ± 27 and a relative cell number (SKBR3; [16]) of 11.7 ± 1.2. It also gave a relative cell number (SKBR3; [17]) of 4.35 ± 0.84, a relative cell number (SKBR3; [18]) of 81.5 ± 7.6 and a relative cell number (SKBR3; [19]) of 66.6 ± 9.4. The relative cell number (SKBR3; [20]) was 11.8 ± 2, the relative cell number (SKBR3; [21]) was 6.04 ± 0.31 and the relative cell number (SKBR3; [22]) was 105 ± 3. It also gave a relative cell number (SKBR3; [23]) of 66.7 ± 1.1, a relative cell number (SKBR3; [24]) of 15.8 ± 8.9 and a relative cell number (SKBR3; [25]) of 3.91 ± 1.7. For the same compound, the relative cell number (SKBR3; sgRNA knockout: sgXBP1, 10 nM) was 98.2 ± 4, the relative cell number (SKBR3; sgRNA knockout: sgXBP1, 100 nM) was 54.7 ± 36 and the relative cell number (SKBR3; [26]) was 15.9 ± 0.47. It also gave a relative cell number (SKBR3; [27]) of 5.49 ± 0.12.
